Results are given in words; binding and its absence hold for the method and conditions named. Binding seen in cells or lysates may run through a third protein. Here binding means that the protein was enriched with, or labelled near, the bait; the list need not be complete. Tags and fused reporters may be left off the sequences shown.
Target: T1, HA-TECPR2 WT (UniProt O15040)
T1 sequence: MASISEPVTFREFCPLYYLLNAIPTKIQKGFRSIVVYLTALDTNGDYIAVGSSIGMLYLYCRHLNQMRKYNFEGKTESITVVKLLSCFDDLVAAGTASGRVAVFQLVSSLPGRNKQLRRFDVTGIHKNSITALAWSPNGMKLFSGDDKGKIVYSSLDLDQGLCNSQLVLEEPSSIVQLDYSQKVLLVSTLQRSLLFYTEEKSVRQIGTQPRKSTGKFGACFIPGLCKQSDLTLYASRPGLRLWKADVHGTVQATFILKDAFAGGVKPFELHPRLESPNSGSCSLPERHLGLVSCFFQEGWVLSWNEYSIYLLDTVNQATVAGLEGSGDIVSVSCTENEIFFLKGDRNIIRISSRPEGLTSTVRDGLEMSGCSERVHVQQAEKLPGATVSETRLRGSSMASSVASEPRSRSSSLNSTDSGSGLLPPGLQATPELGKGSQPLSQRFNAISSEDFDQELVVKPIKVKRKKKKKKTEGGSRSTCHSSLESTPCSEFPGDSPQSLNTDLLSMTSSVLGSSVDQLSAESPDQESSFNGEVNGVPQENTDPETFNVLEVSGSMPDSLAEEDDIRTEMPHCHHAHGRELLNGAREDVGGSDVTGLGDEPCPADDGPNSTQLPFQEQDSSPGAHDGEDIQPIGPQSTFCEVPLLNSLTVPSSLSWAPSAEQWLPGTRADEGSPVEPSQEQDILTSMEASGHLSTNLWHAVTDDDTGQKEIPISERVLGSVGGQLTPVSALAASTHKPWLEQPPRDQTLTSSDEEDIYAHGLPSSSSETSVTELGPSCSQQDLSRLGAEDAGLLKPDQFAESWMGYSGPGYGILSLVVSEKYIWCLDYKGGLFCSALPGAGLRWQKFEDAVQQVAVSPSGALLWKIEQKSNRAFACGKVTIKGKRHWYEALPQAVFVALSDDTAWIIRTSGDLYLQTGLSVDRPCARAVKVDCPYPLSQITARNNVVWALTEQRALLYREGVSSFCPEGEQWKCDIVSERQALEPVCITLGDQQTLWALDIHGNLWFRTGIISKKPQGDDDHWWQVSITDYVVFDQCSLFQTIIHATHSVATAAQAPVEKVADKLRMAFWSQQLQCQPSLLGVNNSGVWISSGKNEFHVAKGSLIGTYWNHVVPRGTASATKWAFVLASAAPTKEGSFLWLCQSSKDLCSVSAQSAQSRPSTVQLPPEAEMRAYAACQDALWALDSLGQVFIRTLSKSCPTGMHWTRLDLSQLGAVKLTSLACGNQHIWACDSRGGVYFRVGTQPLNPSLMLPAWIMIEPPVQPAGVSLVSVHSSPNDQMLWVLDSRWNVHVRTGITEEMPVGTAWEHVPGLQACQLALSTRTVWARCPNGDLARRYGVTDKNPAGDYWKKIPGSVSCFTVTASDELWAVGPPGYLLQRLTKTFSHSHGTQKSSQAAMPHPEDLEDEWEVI
Experiment: affinity purification with mass spectrometry; HA-TECPR2 WT or L440Rfs in TECPR2 MUT 293T cells; lysis in MCL-buffer (50 mM Tris pH 7.4, 150 mM NaCl, 0.5% NP40); HA agarose overnight 4 °C; elution with HA peptide; label-free quantification; controls: empty cells and HA-FIP200/RB1CC1

Sequences of proteins named here, by UniProt entry; tags and fusion partners are left off.
UniProt Q15436: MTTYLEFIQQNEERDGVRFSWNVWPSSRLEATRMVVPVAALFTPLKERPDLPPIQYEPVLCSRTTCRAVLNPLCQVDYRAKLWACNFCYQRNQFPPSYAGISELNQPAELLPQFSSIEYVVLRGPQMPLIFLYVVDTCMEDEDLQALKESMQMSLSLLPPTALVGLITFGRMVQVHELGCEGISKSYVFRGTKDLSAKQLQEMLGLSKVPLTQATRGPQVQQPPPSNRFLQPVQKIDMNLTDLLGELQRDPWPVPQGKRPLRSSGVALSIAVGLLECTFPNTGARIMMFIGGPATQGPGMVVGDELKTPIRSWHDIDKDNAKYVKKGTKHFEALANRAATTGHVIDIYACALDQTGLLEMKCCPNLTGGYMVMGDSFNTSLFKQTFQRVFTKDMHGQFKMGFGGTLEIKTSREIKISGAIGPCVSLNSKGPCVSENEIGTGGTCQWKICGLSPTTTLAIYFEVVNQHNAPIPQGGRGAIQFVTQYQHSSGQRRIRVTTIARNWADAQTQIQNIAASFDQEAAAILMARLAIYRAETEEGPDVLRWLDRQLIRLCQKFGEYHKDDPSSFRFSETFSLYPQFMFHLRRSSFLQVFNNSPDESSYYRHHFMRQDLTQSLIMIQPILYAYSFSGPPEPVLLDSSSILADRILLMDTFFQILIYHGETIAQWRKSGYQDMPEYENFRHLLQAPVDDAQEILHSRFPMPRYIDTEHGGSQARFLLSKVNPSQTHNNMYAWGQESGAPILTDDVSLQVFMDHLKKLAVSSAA
UniProt Q9Y2L5: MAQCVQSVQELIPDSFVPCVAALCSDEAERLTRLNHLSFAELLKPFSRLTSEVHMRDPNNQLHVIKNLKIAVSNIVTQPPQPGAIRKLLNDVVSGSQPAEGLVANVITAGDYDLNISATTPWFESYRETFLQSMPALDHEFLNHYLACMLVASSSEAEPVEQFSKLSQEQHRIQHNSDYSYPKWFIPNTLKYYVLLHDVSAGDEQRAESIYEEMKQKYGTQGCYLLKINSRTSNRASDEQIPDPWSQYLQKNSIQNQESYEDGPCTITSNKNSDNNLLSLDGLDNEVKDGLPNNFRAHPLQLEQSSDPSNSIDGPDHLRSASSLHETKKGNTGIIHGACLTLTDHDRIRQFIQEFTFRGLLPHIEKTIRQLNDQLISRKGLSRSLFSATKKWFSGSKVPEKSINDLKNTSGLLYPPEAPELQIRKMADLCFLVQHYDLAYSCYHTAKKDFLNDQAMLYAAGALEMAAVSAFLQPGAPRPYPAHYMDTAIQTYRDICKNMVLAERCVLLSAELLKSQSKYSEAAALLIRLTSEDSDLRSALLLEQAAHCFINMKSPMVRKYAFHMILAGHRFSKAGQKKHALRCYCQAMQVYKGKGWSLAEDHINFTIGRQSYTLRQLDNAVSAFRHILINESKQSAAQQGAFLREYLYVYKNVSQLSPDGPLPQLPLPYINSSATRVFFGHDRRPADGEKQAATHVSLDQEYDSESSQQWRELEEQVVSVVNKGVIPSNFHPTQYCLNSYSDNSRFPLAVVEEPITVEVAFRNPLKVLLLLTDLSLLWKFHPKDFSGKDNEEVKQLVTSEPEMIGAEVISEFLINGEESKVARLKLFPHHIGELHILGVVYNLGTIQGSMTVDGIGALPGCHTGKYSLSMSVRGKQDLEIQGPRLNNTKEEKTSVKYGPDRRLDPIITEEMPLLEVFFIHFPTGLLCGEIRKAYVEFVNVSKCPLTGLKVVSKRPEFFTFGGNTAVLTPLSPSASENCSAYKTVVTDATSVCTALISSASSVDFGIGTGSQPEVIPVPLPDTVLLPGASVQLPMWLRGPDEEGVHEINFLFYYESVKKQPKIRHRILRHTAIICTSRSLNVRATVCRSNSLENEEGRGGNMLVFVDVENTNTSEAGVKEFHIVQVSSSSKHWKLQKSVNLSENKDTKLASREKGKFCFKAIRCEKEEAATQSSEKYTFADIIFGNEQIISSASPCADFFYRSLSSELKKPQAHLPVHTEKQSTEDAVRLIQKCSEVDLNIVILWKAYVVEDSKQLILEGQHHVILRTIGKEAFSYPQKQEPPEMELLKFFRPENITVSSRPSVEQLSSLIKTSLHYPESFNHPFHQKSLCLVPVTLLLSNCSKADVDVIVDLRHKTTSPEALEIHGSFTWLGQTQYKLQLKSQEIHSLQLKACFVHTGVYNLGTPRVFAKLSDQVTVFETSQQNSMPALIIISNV
UniProt O95166: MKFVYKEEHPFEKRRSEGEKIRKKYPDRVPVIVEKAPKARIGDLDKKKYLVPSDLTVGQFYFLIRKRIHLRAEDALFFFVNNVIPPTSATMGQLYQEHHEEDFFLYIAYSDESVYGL
UniProt Q7Z392: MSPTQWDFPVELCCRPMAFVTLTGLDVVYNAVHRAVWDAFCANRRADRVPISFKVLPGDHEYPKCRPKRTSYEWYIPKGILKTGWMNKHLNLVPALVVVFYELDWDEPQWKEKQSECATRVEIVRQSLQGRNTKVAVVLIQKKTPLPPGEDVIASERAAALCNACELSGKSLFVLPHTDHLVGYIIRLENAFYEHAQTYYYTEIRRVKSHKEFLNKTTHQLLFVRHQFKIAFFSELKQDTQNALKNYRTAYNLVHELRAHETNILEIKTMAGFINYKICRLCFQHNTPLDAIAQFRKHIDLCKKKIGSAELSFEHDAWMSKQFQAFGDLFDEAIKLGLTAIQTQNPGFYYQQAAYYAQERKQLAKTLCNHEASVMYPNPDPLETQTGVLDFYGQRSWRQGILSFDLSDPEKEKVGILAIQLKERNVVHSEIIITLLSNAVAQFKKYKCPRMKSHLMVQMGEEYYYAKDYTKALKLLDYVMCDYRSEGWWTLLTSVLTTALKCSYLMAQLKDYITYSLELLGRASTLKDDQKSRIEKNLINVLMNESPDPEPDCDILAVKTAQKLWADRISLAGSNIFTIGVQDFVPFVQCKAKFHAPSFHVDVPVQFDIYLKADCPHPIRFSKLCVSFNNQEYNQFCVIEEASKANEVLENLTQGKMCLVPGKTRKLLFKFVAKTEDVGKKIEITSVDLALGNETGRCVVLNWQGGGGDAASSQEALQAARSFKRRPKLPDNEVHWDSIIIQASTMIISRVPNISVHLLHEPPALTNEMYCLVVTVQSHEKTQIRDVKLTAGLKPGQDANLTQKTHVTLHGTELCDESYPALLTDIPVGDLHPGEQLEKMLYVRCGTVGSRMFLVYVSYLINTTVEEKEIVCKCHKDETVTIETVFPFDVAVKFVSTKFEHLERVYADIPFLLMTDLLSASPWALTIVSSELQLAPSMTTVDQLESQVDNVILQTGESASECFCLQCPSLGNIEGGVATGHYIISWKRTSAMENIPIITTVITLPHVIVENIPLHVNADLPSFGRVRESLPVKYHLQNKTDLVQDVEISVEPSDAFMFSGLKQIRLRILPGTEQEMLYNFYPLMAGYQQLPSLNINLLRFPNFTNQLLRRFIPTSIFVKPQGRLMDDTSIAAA
UniProt P60468: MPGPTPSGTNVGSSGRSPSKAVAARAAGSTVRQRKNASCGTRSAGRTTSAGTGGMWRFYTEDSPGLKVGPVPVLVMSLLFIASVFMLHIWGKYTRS
UniProt Q9Y296: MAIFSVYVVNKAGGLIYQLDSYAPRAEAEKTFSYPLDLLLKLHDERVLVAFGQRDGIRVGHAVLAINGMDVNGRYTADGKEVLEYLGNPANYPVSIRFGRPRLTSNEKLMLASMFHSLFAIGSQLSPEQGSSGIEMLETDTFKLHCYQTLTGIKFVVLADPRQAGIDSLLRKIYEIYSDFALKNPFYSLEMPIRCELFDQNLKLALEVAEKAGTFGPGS
UniProt P60520: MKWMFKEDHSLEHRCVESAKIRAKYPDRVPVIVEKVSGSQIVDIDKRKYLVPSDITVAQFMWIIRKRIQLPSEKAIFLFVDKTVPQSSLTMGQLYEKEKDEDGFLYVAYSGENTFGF

| Substance | binding |
| --- | --- |
| SEC23A (from UniProt Q15436 1-765) | binds |
| TRAPPC8 (from UniProt Q9Y2L5 1-1435) | binds |
| GABARAP (from UniProt O95166 1-117) | binds |
| TRAPPC11 (from UniProt Q7Z392 1-1133) | binds |
| SEC61B (from UniProt P60468 1-96) | binds |

Further lines, results first:

| binding | Substance |
| --- | --- |
| binds | TRAPPC4 (from UniProt Q9Y296 1-219) |
| binds | GABARAPL2 (from UniProt P60520 1-117) |

Source: article PMC9935918
